Measured values published in paper PMC5201015.
These are yes or no findings as the source states them, for the method shown. Binding seen in cells or lysates may run through a third protein. Some results given as binding are weak or reduced against the parent protein; the word gives no strength. Tags and fused reporters may be left off the sequences shown.

Target: T1, HA–SIRT2 (UniProt Q8IXJ6)
T1 sequence: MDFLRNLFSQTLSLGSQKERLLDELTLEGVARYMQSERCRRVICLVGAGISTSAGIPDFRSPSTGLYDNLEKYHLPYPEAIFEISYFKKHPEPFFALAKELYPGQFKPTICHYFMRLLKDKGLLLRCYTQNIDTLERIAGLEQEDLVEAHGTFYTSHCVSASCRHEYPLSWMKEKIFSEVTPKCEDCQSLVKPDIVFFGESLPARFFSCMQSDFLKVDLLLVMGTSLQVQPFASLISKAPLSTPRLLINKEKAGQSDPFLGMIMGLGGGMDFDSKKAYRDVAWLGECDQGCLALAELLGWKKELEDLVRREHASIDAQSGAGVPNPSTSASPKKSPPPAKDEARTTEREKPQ
Experiment: co-IP; anti-HA magnetic beads, lysates of asynchronous and mitotic (nocodazole) HEK293T cells overexpressing HA–SIRT2 and ANKLE2–GFP; 50 mM Tris-HCl pH 8, 150 mM NaCl, 1% Triton X-100; western blot

B1: ANKLE2–GFP (protein, UniProt Q86XL3 1-938)
chain: MLWPRLAAAEWAALAWELLGASVLLIAVRWLVRRLGPRPGGLGRSGTPVPPPSAAAAPASGEMTMDALLARLKLLNPDDLREEIVKAGLKCGPITSTTRFIFEKKLAQALLEQGGRLSSFYHHEAGVTALSQDPQRILKPAEGNPTDQAGFSEDRDFGYSVGLNPPEEEAVTSKTCSVPPSDTDTYRAGATASKEPPLYYGVCPVYEDVPARNERIYVYENKKEALQAVKMIKGSRFKAFSTREDAEKFARGICDYFPSPSKTSLPLSPVKTAPLFSNDRLKDGLCLSESETVNKERANSYKNPRTQDLTAKLRKAVEKGEEDTFSDLIWSNPRYLIGSGDNPTIVQEGCRYNVMHVAAKENQASICQLTLDVLENPDFMRLMYPDDDEAMLQKRIRYVVDLYLNTPDKMGYDTPLHFACKFGNADVVNVLSSHHLIVKNSRNKYDKTPEDVICERSKNKSVELKERIREYLKGHYYVPLLRAEETSSPVIGELWSPDQTAEASHVSRYGGSPRDPVLTLRAFAGPLSPAKAEDFRKLWKTPPREKAGFLHHVKKSDPERGFERVGRELAHELGYPWVEYWEFLGCFVDLSSQEGLQRLEEYLTQQEIGKKAQQETGEREASCRDKATTSGSNSISVRAFLDEDDMSLEEIKNRQNAARNNSPPTVGAFGHTRCSAFPLEQEADLIEAAEPGGPHSSRNGLCHPLNHSRTLAGKRPKAPRGEEAHLPPVSDLTVEFDKLNLQNIGRSVSKTPDESTKTKDQILTSRINAVERDLLEPSPADQLGNGHRRTESEMSARIAKMSLSPSSPRHEDQLEVTREPARRLFLFGEEPSKLDQDVLAALECADVDPHQFPAVHRWKSAVLCYSPSDRQSWPSPAVKGRFKSQLPDLSGPHSYSPGRNSVAGSNPAKPGLGSPGRYSPVHGSQLRRMARLAELAAL
- binding: binds

B2: HA–PARP3 (enzyme, UniProt Q9Y6F1 1-533)
chain: MAPKPKPWVQTEGPEKKKGRQAGREEDPFRSTAEALKAIPAEKRIIRVDPTCPLSSNPGTQVYEDYNCTLNQTNIENNNNKFYIIQLLQDSNRFFTCWNRWGRVGEVGQSKINHFTRLEDAKKDFEKKFREKTKNNWAERDHFVSHPGKYTLIEVQAEDEAQEAVVKVDRGPVRTVTKRVQPCSLDPATQKLITNIFSKEMFKNTMALMDLDVKKMPLGKLSKQQIARGFEALEALEEALKGPTDGGQSLEELSSHFYTVIPHNFGHSQPPPINSPELLQAKKDMLLVLADIELAQALQAVSEQEKTVEEVPHPLDRDYQLLKCQLQLLDSGAPEYKVIQTYLEQTGSNHRCPTLQHIWKVNQEGEEDRFQAHSKLGNRKLLWHGTNMAVVAAILTSGLRIMPHSGGRVGKGIYFASENSKSAGYVIGMKCGAHHVGYMFLGEVALGREHHINTDNPSLKSPPPGFDSVIARGHTEPDPTQDTELELDGQQVVVPQGQPVPCPEFSSSTFSQSEYLIYQESQCRLRYLLEVHL
- binding: no binding
